Reference: patent US11241441B2, “Formulations of lixivaptan for the treatment of polycystic disease” (PALLADIO BIOSCIENCES, INC., priority 2017, dated 2022)

Tested on: PCK rats
Test: In vivo study of the effects of lixivaptan on PCK rats
Set-up: species or system rat
Details: for Body Weight: 8 weeks
Procedure: A study was performed that examined the effect of lixivaptan (0.5% or 1% w/w lixivaptan in ground rodent chow) on bodyweight, kidney weight, kidney cAMP, urine output, and serum electrolyte concentration in PCK rats, an orthologous animal model of Autosomal Recessive PKD that develops a phenotype reminiscent of ADPKD.
Experimental animals and study design. PCK rats were divided into control and treatment groups at four weeks of age (n=59, ˜10 animals per treatment group and gender). Lixivaptan was dissolved in DMSO and added to ground rodent chow (Regrind Labdiet 5053) at 0.5% or 1.0% concentration (w/w) by homogenous mixing, whereas control animals received the same diet without lixivaptan. Animals were exposed to control- or lixivaptan-diet for eight weeks and were sacrificed at twelve weeks of age.
Experimental Protocol. […] At the end of the dosing period, the animals were weighed and anesthetized with ketamine 90 mg/kg and xylazine 10 mg/kg, IP. Blood samples were obtained by cardiac puncture for determination of plasma electrolytes, creatinine and plasma urea levels. The right kidney and part of the liver were placed into pre-weighed vials containing 10% formaldehyde in phosphate buffer (pH 7.4). The tissues were embedded in paraffin for histological studies. The left kidneys were immediately frozen in liquid nitrogen for determination of cAMP.
Statistical Analysis. Comparisons between groups were analyzed using one-way or two-way analysis of variance (ANOVA) with least significant difference comparisons of the means or student's t-test as appropriate. Data were expressed as means±SD.

Structure (SMILES): Cc1ccc(F)cc1C(=O)Nc1ccc(C(=O)N2Cc3cccn3Cc3ccccc32)c(Cl)c1 [Lixivaptan, 5-fluoro-2-methyl-N-[4-(5H-pyrrolo[2,1-C] [1,4]benzodiazepin-10(11H)-ylcarbonyl)-3-chlorophenyl]benzamide]
- Plasma Potassium (PCK rats F, 0.5% Lixivaptan): 6.0 ± 0.9 mEq/L
- Body Weight (PCK rats F, 0.5% Lixivaptan in chow): 254 ± 13 g
- Plasma Potassium (PCK rats F, 1.0% Lixivaptan): 6.9 ± 0.9 mEq/L
- Body Weight (PCK rats F, 1.0% Lixivaptan in chow): 236 ± 26 g
- Plasma Potassium (PCK rats M, 0.5% Lixivaptan): 6.3 ± 0.42 mEq/L
- Body Weight (PCK rats M, 0.5% Lixivaptan in chow): 434 ± 24 g
- Plasma Potassium (PCK rats M, 1.0% Lixivaptan): 6.1 ± 0.9 mEq/L
- Body Weight (PCK rats M, 1.0% Lixivaptan in chow): 403 ± 33 g
